The record followed here is ChEMBL document CHEMBL1138663, “Synthesis and aromatase inhibitory activity of novel pyridine-containing isoflavones” (J Med Chem, 2004).

SMILES strings stand for the structures. Where only a bound is given, the exact number is not on record here.

The target of this test is T1, Aromatase (Homo sapiens, UniProt P11511).
T1 sequence (P11511 whole entry): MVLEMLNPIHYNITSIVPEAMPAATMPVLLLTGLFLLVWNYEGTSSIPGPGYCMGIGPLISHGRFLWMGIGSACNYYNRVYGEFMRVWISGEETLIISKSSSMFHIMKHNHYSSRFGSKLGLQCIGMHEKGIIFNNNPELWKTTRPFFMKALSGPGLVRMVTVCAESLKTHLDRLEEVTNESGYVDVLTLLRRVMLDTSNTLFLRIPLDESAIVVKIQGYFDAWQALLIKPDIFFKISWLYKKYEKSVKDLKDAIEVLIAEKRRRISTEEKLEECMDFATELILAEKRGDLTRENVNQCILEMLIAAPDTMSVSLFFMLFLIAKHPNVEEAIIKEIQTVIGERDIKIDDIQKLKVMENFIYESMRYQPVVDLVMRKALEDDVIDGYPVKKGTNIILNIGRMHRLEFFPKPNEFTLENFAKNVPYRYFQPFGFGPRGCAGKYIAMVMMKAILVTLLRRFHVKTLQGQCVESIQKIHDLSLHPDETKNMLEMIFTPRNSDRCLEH

Broadly, the IC50 is the concentration that gives 50% inhibition. A low value points to inhibition by little substance.

Compound `C=CCSc1oc2cc(OC)ccc2c(=O)c1-c1ccccc1` yielded a 50% inhibitory concentration (IC50) greater than 100 µM.

Compound `C=CCSc1oc2cc(OCc3ccccc3)ccc2c(=O)c1-c1ccc(OC)cc1` gave a half-inhibitory concentration (IC50) greater than 100 µM.
